This assay has as its target T1, Upf1-TAP (TAP-tagged Upf1 helicase) (S. cerevisiae) (UniProt P30771).
T1 sequence: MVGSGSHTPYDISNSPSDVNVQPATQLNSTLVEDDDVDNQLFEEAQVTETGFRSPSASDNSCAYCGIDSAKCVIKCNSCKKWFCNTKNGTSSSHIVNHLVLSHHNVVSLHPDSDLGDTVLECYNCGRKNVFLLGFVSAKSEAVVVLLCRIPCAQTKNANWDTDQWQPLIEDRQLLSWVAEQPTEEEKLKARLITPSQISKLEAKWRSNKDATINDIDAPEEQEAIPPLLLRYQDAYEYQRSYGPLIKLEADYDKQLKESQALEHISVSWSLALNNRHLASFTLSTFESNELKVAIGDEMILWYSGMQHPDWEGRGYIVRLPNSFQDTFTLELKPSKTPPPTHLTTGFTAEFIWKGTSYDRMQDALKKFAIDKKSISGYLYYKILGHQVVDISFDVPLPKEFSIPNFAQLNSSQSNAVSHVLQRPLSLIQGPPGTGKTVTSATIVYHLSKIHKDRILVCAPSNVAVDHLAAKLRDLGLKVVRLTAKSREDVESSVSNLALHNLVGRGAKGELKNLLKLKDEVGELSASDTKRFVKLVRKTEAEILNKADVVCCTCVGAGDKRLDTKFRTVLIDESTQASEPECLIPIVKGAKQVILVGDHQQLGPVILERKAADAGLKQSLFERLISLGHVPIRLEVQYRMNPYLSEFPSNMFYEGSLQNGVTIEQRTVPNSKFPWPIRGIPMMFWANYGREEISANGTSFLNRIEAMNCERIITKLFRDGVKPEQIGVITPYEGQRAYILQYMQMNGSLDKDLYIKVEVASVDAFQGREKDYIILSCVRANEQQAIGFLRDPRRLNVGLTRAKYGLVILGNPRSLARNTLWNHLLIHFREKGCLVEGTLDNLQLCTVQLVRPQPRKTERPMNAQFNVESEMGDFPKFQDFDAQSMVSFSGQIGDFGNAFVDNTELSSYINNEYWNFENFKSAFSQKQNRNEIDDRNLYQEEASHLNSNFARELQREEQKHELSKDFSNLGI
The experiment in a line: co-IP; Upf1-TAP captured from 1 mg of yeast total cell extract on IgG-coated magnetic beads (Dynabeads PanMouse IgG), 1 h at 4°C; 20 mM HEPES pH 7.4, 145 mM KCl; extract and beads with or without RNase A and RNase T1; Rbs1-Myc detected by anti-Myc western blot. Background: In western blotting, separated proteins are transferred to a membrane and probed.

Numbering of substitutions follows the chain as printed. Names may count otherwise. No constants are given. Whether binding was seen depends on the method and setting. Binding seen in cells or lysates may run through a third protein. Some entries that bind do so weakly or less than the wild type. Where a sequence is shown, tags or fusion partners need not be part of it.

B1: Rbs1-Myc (endogenous Myc-tagged Rbs1 expressed from the chromosomal locus) (protein, UniProt Q05672 1-457)
chain: MTALDSRNWGLTPAMETGLFQKPQDRIFIIELENSIVSFINSNTESFQLRPMNSYYRLLSHQIAEYHNLNHVLARTQDSCVILFKGENFQKIEGKPLLQELQLNKKPEECASSSESIEKSNNNRIFRILKRKEVGNECDYKIDGNTRTPNSNLTANSNKDQKIEIDDKSSTDLEQERIEKERLYEQRKQEIFDKLNKSEDDVKSTNSSGSSDSDNEWSDWLNGDDSNTQTSNGSVSSSSPFNSSVTTIQVNKPQQQFYDSRRGRGGRRRGTNNYKDAYRGQSRRNKENGGYQSGYSSPYLVYPPPQMGGNSLPTYPLMYNPAGPAPGPAPSPMVMGNNTVFMNPYMYNMNPQGSCSFGTPIPMYPPYQYQYQYQYNTQYHSGPYSNTPSYNSNNYTRSSANKYHHFQGKNSYSGAIPKRSDDSNSNKNEGIRRASVEGSPSSRDTDSVEMKFDKLNI
Consider B1, for which the binding entry is given as “binds”.

B2: Rbs1 R3H-Myc (Arg57Ala, His61Ala) overexpressed from the multicopy plasmid [RBS1 R3H-Myc] (protein, UniProt Q05672 1-457)
chain: B1 chain with R57A, H61A
As for B2, the binding entry is recorded as “binds”.

B3: Rbs1-Myc overexpressed from the multicopy plasmid [RBS1-Myc] (protein, UniProt Q05672 1-457)
chain: B1 chain
As to B3, the binding entry was “binds”.
